Reference: the supplement of paper PMC7666118
This is one part of the list.

Protein sequences, listed by entry. Tags and fused reporters are not part of them. Lines headed by an entry give the natural chain unless they say otherwise; changes in a name come on top.
UniProt Q96G03: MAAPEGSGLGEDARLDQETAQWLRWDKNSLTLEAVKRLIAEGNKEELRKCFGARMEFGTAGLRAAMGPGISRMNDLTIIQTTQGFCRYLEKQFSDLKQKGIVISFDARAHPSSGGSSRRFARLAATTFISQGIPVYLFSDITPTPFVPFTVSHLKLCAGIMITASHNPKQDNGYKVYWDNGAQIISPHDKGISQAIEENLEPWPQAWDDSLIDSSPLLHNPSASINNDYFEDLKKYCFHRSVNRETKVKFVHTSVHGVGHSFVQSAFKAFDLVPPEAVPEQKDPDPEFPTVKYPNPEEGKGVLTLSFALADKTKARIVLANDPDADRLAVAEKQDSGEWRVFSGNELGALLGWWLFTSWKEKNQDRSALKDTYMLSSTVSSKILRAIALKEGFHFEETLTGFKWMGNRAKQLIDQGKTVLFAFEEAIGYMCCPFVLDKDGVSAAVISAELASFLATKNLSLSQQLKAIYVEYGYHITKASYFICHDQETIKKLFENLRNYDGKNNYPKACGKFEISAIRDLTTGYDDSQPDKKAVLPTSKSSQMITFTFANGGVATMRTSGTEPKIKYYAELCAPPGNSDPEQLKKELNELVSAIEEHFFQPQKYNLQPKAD
UniProt Q9NWU1, whole entry: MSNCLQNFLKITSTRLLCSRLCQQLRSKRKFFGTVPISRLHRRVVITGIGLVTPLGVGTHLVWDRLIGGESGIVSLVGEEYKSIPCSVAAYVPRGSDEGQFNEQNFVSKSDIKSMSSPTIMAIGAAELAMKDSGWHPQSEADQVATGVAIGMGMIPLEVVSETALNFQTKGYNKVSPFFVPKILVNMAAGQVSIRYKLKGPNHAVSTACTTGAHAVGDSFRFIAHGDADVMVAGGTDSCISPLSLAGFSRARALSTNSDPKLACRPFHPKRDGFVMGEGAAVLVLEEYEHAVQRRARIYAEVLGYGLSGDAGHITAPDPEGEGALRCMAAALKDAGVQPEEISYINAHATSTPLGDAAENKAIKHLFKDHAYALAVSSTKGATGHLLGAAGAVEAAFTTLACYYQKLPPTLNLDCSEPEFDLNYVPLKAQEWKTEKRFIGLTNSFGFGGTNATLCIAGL
UniProt Q9H2J4: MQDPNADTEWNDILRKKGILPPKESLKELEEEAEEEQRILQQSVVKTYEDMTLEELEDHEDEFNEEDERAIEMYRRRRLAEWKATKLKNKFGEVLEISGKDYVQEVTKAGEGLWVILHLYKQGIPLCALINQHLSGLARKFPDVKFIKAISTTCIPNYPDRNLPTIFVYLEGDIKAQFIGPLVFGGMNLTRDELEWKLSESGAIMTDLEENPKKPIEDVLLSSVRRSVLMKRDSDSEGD
UniProt Q9UQ80: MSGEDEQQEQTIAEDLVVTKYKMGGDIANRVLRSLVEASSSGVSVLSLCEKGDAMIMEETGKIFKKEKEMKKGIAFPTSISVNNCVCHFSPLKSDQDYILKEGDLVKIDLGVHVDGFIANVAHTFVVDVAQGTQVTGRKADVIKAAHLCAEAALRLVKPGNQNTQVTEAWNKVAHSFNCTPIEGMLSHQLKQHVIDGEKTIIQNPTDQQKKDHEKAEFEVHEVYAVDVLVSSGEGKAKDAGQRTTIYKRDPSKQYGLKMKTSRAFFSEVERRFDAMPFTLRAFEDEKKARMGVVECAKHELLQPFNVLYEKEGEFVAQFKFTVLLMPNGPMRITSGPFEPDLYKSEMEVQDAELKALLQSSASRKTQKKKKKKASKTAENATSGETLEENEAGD
UniProt Q92643: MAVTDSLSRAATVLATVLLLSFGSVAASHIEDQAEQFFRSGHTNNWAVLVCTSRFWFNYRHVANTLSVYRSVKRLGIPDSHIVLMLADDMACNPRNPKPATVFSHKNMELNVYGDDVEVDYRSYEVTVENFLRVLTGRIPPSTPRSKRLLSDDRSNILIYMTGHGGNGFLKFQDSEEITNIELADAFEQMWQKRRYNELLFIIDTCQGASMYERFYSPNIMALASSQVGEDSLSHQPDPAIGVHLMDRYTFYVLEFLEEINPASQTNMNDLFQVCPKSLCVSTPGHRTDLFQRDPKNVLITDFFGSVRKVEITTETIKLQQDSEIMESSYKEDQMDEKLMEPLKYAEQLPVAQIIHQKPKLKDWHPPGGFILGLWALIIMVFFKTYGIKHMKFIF
UniProt O75879: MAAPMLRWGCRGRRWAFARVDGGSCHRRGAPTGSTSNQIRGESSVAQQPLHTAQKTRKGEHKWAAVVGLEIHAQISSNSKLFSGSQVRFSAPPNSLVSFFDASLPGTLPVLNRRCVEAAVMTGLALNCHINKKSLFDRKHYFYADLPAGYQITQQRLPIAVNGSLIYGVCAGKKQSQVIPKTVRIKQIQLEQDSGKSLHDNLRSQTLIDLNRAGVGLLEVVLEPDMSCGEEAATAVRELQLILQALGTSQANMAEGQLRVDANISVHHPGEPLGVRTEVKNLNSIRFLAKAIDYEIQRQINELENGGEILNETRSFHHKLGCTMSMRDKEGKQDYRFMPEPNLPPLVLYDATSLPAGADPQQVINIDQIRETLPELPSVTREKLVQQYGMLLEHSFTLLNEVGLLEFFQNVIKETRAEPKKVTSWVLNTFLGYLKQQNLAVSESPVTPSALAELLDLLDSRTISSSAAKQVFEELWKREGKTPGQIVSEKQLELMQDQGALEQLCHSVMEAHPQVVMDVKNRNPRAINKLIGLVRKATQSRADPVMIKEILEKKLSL
UniProt O15294: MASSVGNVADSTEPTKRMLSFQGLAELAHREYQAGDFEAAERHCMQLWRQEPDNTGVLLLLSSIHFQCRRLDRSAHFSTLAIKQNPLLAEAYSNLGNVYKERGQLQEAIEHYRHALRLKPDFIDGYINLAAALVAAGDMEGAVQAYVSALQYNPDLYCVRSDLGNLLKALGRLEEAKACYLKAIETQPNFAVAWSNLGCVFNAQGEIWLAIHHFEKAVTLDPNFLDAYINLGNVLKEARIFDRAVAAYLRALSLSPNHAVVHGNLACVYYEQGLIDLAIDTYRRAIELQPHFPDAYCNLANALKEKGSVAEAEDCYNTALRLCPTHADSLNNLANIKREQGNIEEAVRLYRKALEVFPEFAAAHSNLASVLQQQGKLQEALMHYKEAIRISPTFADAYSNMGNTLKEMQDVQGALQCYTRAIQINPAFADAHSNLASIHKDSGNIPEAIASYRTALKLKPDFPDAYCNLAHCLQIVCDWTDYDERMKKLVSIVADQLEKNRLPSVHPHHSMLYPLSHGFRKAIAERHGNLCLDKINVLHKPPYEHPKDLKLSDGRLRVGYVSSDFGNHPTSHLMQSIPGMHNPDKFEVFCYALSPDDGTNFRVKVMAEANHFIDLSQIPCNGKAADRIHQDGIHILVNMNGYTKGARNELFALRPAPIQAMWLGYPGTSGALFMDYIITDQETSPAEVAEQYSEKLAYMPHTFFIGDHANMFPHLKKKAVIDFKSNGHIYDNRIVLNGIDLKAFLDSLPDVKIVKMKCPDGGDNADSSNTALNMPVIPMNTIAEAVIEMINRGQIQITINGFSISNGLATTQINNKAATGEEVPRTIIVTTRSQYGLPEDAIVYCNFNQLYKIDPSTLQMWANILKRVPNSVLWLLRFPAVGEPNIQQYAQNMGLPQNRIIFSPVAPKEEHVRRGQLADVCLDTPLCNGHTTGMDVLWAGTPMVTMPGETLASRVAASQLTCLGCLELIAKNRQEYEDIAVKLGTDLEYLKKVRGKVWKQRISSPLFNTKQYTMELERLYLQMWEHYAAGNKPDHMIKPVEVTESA
UniProt O96011: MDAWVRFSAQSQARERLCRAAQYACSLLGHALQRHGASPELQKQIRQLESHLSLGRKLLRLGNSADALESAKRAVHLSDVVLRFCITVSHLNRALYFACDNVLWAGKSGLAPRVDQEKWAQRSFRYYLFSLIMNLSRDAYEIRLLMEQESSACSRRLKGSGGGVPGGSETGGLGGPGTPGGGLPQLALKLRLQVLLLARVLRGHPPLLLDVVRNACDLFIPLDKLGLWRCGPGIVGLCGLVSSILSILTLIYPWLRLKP
UniProt Q8N573: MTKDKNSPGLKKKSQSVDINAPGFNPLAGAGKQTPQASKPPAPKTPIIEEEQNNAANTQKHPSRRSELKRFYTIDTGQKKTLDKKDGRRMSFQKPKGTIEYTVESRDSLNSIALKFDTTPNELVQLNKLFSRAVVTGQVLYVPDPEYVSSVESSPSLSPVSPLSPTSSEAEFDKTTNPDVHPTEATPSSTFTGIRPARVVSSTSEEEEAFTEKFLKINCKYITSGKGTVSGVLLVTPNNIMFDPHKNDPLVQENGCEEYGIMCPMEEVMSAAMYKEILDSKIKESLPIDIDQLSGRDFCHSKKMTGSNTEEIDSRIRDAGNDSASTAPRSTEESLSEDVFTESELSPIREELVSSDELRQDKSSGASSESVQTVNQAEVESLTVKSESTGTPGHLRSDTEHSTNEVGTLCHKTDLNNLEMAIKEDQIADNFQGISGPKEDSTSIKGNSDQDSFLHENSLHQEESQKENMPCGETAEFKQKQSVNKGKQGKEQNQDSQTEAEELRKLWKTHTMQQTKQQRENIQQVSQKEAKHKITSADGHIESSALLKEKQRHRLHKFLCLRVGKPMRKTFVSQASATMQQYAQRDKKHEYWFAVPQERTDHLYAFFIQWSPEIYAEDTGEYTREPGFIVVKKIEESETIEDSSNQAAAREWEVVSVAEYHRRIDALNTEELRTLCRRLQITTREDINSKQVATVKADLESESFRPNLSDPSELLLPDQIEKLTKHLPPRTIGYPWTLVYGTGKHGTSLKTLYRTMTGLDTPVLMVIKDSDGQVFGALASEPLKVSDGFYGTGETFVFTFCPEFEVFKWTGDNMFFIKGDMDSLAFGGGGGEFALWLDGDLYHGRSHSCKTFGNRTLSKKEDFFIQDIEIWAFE
UniProt Q9UHV9, whole entry: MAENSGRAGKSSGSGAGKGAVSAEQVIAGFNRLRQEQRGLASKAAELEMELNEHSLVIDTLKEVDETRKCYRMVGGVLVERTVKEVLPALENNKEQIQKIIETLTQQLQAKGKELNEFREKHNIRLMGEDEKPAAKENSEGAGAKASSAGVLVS
UniProt Q9UHG3: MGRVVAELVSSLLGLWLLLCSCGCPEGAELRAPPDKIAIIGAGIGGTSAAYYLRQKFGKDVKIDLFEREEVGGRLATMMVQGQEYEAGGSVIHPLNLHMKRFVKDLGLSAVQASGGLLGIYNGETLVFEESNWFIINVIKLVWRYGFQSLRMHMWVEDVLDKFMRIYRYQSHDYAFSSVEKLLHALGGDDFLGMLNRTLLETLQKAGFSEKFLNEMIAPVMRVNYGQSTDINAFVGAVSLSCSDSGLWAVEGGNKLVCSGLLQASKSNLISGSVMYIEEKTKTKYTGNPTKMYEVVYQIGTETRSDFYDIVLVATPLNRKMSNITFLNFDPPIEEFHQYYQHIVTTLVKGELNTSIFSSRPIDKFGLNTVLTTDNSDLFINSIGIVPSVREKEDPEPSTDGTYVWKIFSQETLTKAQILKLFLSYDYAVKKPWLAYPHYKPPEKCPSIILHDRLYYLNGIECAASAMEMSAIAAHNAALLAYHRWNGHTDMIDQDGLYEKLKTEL
UniProt Q9NUG6, whole entry: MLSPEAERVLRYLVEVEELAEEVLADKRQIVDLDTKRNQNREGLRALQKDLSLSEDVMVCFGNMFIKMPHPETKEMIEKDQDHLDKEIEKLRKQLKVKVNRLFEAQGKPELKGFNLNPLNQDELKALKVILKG
UniProt O00628: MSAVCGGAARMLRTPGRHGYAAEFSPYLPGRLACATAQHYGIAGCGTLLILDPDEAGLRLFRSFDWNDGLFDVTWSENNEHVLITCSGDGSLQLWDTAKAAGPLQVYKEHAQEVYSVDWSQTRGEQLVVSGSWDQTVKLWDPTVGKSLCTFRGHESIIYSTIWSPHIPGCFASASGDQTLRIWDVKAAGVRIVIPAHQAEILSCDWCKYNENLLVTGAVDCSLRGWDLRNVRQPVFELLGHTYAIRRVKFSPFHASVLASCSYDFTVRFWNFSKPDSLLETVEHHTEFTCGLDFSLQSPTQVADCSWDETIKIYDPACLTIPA
UniProt Q96G74: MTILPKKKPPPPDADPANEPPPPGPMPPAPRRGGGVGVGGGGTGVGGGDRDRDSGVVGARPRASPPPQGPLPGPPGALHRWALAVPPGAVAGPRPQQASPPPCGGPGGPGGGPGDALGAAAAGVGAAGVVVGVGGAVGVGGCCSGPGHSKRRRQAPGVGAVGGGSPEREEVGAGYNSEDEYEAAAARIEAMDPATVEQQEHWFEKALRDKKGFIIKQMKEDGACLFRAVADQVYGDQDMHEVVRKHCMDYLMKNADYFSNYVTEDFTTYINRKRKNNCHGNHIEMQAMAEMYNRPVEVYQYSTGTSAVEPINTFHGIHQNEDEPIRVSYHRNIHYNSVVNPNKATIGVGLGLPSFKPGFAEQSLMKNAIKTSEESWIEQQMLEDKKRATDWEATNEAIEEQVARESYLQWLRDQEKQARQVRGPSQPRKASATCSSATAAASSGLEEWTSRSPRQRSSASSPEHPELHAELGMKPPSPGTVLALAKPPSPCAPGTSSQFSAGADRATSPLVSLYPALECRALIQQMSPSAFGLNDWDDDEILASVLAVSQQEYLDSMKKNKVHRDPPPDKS

Each target was assayed with COc1ccc(Cn2ccc3cc(C)c(C(=O)NO)cc32)cc1 (assay: dose-dependent thermal stabilisation call (2D-TPP, DLPTP, 10% FDR) (binary (1 = stabilised)); higher = stabilised by the compound). Settings: system: HL-60 intact cells; concentration range 0.04-10 µM.
Experimental: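 2D thermal proteome profiling in intact HL-60 cells treated with BRD-3811 (0, 0.04, 0.29, 2, 10 uM) for 90 min at 37 C, then heated 3 min at one of 12 temperatures (42-63.9 C). Soluble protein was quantified by TMT10 MS. The value is the DLPTP call of the paper: dose-dependent thermal stabilisation over all temperatures at 10% FDR (F-test of a dose-response against a flat model); one experiment, one call per tested protein.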

Target	dose-dependent thermal stabilisation call
PGM2 (UniProt Q96G03)	inactive: 0
OXSM (UniProt Q9NWU1)	inactive: 0
PDCL3 (UniProt Q9H2J4)	inactive: 0
PACS2 (UniProt Q86VP3)	inactive: 0
P2RY8 (UniProt Q86VZ1)	inactive: 0
PA2G4 (UniProt Q9UQ80)	inactive: 0
OSGEP (UniProt Q9NPF4)	inactive: 0
OMA1 (UniProt Q96E52)	inactive: 0
PIGK (UniProt Q92643)	inactive: 0
PET112L (UniProt O75879)	inactive: 0
OGT (UniProt O15294)	inactive: 0
PEX11B (UniProt O96011)	inactive: 0
PHKB (UniProt Q93100)	inactive: 0
PHF6 (UniProt Q8IWS0)	inactive: 0
OXR1 (UniProt Q8N573)	inactive: 0
PFDN2 (UniProt Q9UHV9)	inactive: 0
PFKP (UniProt Q01813)	inactive: 0
PKP1 (UniProt Q13835)	inactive: 0
PIGM (UniProt Q9H3S5)	inactive: 0
PLAU (UniProt P00749)	inactive: 0
PEX5 (UniProt P50542)	inactive: 0
PCYOX1 (UniProt Q9UHG3)	inactive: 0
PDRG1 (UniProt Q9NUG6)	inactive: 0
PEX7 (UniProt O00628)	inactive: 0
PHGDH (UniProt O43175)	active: 1
OTUD5 (UniProt Q96G74)	inactive: 0
PELP1 (UniProt Q8IZL8)	inactive: 0

Two records picked at random from those above:
Target	dose-dependent thermal stabilisation call
PIGK (UniProt Q92643)	inactive: 0
OMA1 (UniProt Q96E52)	inactive: 0
